For two sequences, isolated yield results are on record in publication PMC7006505 (Chemical Science, 2019).

Where a sequence shows no end group, the ends are not given.

The data set can be described thus: general procedure: Fmoc solid-phase peptide synthesis; rink-amide resin. The note with it: whole synthesis.

Turning to TFFYGGSRGKRNNFKTEEY, the isolated yield was 15%.
The value for THRPPMWSPVWP was 12%.
